Laboratory results from article PMC6238398, “The crystal structure of Staufen1 in complex with a physiological RNA sheds light on substrate selectivity” (Life Science Alliance, 2018).
Numbering of substitutions follows the chain as printed. For some assays here: The comparison behind a weaker result is the experiment's own reference, which may not be listed here. Tags and fusion partners may be left off the protein sequences shown. For some assays here: For at least one entry, the source does not settle the construct or the ends of the probe. For some assays here: At least one verdict rests on a figure or table, not on a statement of the authors.

Experiments:
[1] = target: T1, dStau Q718A (Drosophila melanogaster) (UniProt P25159); test: fluorescence anisotropy; conditions: FA: 10 nM 5'-FAM RNA, 20 mM Hepes pH 7.5, 150 mM KCl, RT (19-21 C); recombinant protein; residues 570-786; label: 5'-6-FAM
T1 sequence (looked up): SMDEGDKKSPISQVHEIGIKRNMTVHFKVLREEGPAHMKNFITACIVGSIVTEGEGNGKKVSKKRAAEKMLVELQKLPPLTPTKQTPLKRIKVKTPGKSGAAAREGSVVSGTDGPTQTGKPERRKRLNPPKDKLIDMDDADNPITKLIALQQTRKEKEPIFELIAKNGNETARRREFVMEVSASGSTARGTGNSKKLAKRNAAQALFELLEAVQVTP

[2] = target: T2, dStau wt (Drosophila melanogaster) (UniProt P25159); test: fluorescence anisotropy; conditions: FA: 10 nM 5'-FAM RNA, 20 mM Hepes pH 7.5, 150 mM KCl, RT (19-21 C); recombinant protein; residues 570-786; label: 5'-6-FAM
T2 sequence (looked up): T1 sequence (looked up) with A149Q

Sequence: CGCUAUUCGCCUUAGAUGUAUCUGGGUGGCUGCUCCACUAAAGCCCGGGAAUAUGCAACCAGUUACAUUUGAGGCCAUUUGGGCUUAAGCG [bcd III]
- binding result [1]: binds more weakly
- binding result [2]: binds
